# Values of other authors, collected in US20220378861A1, “COMPOSITIONS AND METHODS FOR DELIVERING CANNABINOIDS USING MICRONEEDLE DEVICES TO THE SKIN” (AQUAVIT PHARMACEUTICALS, INC., priority 2019, published 2022).
# Some entries share one result that the patent states for a list of compounds.
# Details: oral delivery
structure (smiles),measurement,value
"C=C(C)[C@@H]1CCC(C)=C[C@H]1c1c(O)cc(CCCCC)cc1O [CBD, cannabidiol]",peak concentrations occurring post dose,1 to 5 h
